PubChem BioAssay AID1508597, Cure First | 2020

Aim: 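Knock-downs altering ovarian cancer cell survival with or without PARP inhibitor rucaparib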 (primary screen)
Cell system: human ovarian carcinoma lines grown from tumours: OCI-P5x (papillary serous) and OCI-C5x (clear cell)
Knock-down reagent: siRNA pool against human genes, 1.25 pmol siRNA per well
Timing: 72 h or 96 h, depending on the cell culture
Challenge: rucaparib 20 µM (about IC30) or vehicle, present until read-out
Rucaparib or vehicle: Rucaparib
Cell line: OCI-P5x (serous)
Measured: 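Luminescent ATP-based viability assay read 72 or 96 h after transfection, depending on culture, given as normalised percent viability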
Reading the numbers: viability, normalised: higher = more viable cells remaining
Rule for the call: 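a well counts as a hit if its normalised viability is under 80 percent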
Calls: active = viability under 80%; inactive = viability 80% or more
This is an unselected part of the about 2,100 reagents, in one setting of the screen. 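Calls flag viability under 80% in either arm, not effects specific to rucaparib; the reference for percent is not stated.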 A reagent listed more than once was tested more than once; the source does not tell the runs apart. Not stated in the record: the 100% reference.

Target gene	technical replicate	viability, normalised (%)	Call
NME7 (GeneID 29922)	1	61.2	active
NME7 (GeneID 29922)	1	85.6	inactive
NME7 (GeneID 29922)	2	70	active
NME7 (GeneID 29922)	2	74.9	active
NME7 (GeneID 29922)	3	69.9	active
NME7 (GeneID 29922)	3	75.7	active
UCK2 (GeneID 7371)	1	108	inactive
UCK2 (GeneID 7371)	2	101	inactive
UCK2 (GeneID 7371)	3	88	inactive
BRCC3 (GeneID 79184)	1	61.3	active
BRCC3 (GeneID 79184)	1	85.7	inactive
BRCC3 (GeneID 79184)	2	56.8	active
BRCC3 (GeneID 79184)	2	77.4	active
BRCC3 (GeneID 79184)	3	71.6	active
BRCC3 (GeneID 79184)	3	72.4	active
TP53RK (GeneID 112858)	1	65.7	active
TP53RK (GeneID 112858)	2	61.2	active
TP53RK (GeneID 112858)	3	68.5	active
SP140 (GeneID 11262)	1	46	active
SP140 (GeneID 11262)	2	49.4	active
SP140 (GeneID 11262)	3	45.4	active
CAMK1G (GeneID 57172)	1	76.5	active
CAMK1G (GeneID 57172)	1	87.8	inactive
CAMK1G (GeneID 57172)	2	93.1	inactive
CAMK1G (GeneID 57172)	2	73.6	active
CAMK1G (GeneID 57172)	3	74.4	active
CAMK1G (GeneID 57172)	3	87	inactive
CHMP4A (GeneID 29082)	1	81.3	inactive
CHMP4A (GeneID 29082)	2	73.7	active
CHMP4A (GeneID 29082)	3	73.9	active
PCDHB13 (GeneID 56123)	1	30	active
PCDHB13 (GeneID 56123)	2	22.1	active
PCDHB13 (GeneID 56123)	3	29.5	active
FGFR4 (GeneID 2264)	1	93.5	inactive
FGFR4 (GeneID 2264)	2	101	inactive
FGFR4 (GeneID 2264)	3	75.5	active
NBN (GeneID 4683)	1	43.9	active
NBN (GeneID 4683)	1	105	inactive
NBN (GeneID 4683)	2	34.5	active
NBN (GeneID 4683)	2	81.2	inactive
NBN (GeneID 4683)	3	65.3	active
NBN (GeneID 4683)	3	39.7	active
POLM (GeneID 27434)	1	109	inactive
POLM (GeneID 27434)	2	91.5	inactive
POLM (GeneID 27434)	3	87.7	inactive
FCSK (GeneID 197258)	1	68.7	active
FCSK (GeneID 197258)	2	47.9	active
FCSK (GeneID 197258)	3	49.4	active
MED14 (GeneID 9282)	1	61.3	active
MED14 (GeneID 9282)	2	38.3	active
MED14 (GeneID 9282)	3	55.3	active
ACTL6A (GeneID 86)	1	56.6	active
ACTL6A (GeneID 86)	2	46.4	active
ACTL6A (GeneID 86)	3	49.6	active
BRD10 (GeneID 158358)	1	51.1	active
BRD10 (GeneID 158358)	2	51.8	active
BRD10 (GeneID 158358)	3	48.7	active

Part of the list above, set out differently:
TP53RK (GeneID 112858), technical replicate 2 — viability, normalised (%) = 61.2; Call = active
TP53RK (GeneID 112858), technical replicate 3 — viability, normalised (%) = 68.5; Call = active
SP140 (GeneID 11262), technical replicate 1 — viability, normalised (%) = 46; Call = active
SP140 (GeneID 11262), technical replicate 2 — viability, normalised (%) = 49.4; Call = active
SP140 (GeneID 11262), technical replicate 3 — viability, normalised (%) = 45.4; Call = active
CAMK1G (GeneID 57172), technical replicate 1 — viability, normalised (%) = 76.5; Call = active
